Assay results from the supplement of paper PMC10849652.
The list shows a part of the results.

The chains behind the UniProt entries cited, without tags or fusion partners. Where a name states a change or a piece, a line headed by the entry shows the natural chain unless it says otherwise.
UniProt P42574: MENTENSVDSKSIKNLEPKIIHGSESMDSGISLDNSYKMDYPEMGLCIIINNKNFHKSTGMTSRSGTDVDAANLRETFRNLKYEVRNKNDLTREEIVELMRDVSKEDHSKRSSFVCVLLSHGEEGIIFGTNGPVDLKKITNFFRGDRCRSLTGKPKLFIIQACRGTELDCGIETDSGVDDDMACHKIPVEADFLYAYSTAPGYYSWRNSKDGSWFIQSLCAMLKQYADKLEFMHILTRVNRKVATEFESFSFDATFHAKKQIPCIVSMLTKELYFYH
UniProt Q14790: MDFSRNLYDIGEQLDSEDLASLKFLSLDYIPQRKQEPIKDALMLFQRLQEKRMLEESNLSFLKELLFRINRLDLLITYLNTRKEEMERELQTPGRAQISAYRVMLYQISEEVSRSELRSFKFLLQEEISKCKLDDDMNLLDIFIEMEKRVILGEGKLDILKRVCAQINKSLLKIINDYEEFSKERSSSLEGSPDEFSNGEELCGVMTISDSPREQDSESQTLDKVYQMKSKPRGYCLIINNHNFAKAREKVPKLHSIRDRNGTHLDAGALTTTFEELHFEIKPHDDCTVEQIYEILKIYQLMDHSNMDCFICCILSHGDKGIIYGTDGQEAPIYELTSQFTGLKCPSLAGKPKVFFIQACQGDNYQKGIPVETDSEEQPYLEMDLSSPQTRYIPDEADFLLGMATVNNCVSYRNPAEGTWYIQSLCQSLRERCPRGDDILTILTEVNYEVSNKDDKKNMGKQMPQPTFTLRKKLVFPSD
UniProt Q6P4E1: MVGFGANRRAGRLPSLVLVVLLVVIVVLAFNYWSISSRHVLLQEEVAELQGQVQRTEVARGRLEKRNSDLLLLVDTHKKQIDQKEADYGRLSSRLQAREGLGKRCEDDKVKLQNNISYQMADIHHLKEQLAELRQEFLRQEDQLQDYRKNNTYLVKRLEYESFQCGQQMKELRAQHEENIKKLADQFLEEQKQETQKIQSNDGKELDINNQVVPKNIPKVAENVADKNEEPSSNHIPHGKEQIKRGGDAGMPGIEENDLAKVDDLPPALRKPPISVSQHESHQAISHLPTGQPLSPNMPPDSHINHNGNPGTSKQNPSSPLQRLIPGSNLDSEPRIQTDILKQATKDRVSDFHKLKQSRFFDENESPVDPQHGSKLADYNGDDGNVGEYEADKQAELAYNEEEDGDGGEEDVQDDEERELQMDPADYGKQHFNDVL
UniProt Q8IWD4: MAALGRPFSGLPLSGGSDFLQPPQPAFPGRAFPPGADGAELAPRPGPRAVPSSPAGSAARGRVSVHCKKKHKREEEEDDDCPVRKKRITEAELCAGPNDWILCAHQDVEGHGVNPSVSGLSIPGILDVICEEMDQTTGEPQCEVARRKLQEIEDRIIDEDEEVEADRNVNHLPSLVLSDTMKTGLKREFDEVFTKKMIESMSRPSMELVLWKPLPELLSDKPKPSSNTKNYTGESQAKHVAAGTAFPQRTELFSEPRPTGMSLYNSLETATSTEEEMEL
UniProt Q96S94: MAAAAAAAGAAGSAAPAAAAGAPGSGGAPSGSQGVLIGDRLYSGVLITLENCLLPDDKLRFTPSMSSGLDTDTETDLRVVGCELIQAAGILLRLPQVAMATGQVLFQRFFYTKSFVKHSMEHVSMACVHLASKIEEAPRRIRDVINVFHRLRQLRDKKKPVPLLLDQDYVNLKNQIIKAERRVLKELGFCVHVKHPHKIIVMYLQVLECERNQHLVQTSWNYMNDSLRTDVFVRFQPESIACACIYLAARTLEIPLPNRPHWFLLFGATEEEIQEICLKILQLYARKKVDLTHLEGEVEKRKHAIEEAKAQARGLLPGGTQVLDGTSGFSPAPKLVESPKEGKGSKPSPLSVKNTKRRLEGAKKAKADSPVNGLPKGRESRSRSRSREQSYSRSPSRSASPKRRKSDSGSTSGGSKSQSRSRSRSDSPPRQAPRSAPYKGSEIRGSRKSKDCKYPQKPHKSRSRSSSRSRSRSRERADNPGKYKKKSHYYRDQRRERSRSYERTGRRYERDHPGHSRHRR
UniProt Q8N4J0: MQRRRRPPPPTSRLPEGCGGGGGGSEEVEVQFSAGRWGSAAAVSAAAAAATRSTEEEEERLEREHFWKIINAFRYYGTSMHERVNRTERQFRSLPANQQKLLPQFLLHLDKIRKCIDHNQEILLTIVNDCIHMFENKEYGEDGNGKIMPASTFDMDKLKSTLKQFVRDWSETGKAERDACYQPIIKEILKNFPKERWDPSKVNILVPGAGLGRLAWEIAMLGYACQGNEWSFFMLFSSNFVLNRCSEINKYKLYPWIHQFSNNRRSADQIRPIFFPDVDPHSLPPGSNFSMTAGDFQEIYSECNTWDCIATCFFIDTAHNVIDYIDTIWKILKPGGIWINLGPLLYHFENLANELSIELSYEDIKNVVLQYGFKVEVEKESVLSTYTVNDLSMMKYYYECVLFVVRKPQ
UniProt P24863: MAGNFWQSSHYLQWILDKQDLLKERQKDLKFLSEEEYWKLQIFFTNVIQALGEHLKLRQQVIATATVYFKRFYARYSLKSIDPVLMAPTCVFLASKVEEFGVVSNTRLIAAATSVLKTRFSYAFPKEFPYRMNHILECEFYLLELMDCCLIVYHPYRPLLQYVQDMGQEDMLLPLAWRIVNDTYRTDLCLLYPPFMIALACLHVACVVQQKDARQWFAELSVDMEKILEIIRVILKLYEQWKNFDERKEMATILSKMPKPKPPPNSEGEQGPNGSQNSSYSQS
UniProt Q8WXE0: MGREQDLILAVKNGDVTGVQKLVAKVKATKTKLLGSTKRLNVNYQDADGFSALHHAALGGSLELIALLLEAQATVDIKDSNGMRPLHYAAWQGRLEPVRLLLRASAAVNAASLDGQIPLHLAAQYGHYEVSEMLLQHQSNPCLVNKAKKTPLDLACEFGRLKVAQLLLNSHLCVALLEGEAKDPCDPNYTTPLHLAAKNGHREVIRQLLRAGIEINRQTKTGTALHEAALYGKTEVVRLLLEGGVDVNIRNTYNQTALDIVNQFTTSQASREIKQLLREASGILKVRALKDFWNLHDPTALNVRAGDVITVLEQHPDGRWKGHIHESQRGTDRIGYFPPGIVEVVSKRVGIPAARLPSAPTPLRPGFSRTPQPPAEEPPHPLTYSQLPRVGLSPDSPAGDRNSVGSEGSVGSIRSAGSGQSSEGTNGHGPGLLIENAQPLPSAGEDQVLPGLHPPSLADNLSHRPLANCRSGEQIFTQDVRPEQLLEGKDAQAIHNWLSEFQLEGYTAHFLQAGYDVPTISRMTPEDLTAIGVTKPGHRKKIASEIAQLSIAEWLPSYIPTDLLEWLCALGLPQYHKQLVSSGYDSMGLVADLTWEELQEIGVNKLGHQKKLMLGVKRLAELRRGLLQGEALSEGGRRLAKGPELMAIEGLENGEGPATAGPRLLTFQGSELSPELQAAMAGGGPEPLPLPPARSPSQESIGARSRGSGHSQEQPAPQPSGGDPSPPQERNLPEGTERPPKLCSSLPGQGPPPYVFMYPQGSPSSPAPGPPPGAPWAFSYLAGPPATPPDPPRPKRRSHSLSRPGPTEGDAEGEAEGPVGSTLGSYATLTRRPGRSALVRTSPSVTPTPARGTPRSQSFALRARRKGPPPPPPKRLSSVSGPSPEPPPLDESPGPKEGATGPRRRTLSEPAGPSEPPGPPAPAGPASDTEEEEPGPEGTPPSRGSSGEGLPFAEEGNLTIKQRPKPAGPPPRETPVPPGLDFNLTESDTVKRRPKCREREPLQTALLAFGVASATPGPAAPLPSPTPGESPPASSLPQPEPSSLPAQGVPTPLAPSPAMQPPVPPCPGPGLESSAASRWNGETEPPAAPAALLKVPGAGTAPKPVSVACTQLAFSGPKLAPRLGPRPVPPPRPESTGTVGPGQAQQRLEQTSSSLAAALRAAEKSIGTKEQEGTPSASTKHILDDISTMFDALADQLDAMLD
UniProt Q9H6F5: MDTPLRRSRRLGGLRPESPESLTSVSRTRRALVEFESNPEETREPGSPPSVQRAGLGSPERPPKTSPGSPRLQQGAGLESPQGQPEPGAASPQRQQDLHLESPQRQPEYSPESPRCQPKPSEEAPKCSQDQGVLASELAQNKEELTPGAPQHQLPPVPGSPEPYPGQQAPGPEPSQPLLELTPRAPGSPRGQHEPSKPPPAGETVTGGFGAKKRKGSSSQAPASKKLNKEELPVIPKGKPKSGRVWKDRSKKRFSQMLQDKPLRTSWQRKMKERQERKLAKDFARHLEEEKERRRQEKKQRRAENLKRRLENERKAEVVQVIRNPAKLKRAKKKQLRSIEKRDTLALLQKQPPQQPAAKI
UniProt Q96MW1: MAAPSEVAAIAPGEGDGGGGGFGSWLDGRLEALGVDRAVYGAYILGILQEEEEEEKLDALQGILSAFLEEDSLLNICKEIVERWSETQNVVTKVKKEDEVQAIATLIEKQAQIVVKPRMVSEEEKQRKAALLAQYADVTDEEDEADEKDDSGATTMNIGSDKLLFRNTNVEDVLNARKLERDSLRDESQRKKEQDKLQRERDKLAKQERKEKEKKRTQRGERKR
UniProt Q8N7R7: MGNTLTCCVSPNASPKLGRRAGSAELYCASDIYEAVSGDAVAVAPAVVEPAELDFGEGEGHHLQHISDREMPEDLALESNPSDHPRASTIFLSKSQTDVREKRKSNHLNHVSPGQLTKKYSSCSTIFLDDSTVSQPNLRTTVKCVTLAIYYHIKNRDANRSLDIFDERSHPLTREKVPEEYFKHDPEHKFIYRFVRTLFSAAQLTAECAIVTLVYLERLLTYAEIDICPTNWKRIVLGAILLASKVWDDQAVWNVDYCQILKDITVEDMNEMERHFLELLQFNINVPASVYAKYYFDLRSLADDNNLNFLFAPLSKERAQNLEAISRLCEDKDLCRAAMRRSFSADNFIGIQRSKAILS
UniProt Q8IX12: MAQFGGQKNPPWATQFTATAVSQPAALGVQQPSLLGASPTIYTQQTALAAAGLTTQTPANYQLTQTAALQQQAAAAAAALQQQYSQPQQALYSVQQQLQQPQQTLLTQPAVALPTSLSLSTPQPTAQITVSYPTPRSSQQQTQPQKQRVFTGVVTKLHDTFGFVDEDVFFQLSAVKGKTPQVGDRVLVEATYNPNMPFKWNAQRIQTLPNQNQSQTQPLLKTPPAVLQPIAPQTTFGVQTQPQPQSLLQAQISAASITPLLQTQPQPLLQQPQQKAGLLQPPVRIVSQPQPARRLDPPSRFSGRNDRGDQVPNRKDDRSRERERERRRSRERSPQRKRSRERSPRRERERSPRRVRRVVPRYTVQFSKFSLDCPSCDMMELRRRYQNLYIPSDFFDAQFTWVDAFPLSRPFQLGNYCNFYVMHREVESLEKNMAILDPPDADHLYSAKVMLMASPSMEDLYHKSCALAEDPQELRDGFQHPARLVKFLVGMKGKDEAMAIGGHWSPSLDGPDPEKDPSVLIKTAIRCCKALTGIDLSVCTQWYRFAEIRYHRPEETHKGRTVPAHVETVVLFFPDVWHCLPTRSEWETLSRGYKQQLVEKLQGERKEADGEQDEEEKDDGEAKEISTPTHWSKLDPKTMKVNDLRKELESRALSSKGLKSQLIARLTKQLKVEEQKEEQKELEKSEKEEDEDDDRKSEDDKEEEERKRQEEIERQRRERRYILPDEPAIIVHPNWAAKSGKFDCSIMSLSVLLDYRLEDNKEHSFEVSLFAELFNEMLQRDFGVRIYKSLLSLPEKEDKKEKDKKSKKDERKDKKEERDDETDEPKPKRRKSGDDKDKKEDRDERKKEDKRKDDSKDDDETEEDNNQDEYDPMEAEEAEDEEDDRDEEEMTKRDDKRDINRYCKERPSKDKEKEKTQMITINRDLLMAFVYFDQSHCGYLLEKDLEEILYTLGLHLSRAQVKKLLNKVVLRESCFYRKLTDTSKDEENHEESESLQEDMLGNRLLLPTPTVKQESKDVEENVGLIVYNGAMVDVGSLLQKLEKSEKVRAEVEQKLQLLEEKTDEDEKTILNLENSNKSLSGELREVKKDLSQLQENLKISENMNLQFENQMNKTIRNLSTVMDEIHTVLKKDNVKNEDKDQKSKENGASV
UniProt Q96NT0: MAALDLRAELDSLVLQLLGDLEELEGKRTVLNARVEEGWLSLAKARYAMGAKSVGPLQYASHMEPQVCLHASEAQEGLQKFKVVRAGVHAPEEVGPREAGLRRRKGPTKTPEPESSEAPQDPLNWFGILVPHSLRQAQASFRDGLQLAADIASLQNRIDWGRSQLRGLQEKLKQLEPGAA

Assays:
Test in all cases: log2 fold change, soluble protein after heating vs DMSO (PISA); higher = thermal stabilisation; K562 lysate, 10 uM; active = over 0.2 and 3.5 SD of the protein, either way, in both replicates (recomputed)
[1] = compound: CCCS(=O)(=O)Nc1ccc(F)c(C(=O)c2c[nH]c3ncc(-c4ccc(Cl)cc4)cc23)c1F [vemurafenib]
In short: (§1)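 K562 pellets were dounce-homogenised in PBS pH 7.4 containing 1 mM MgCl2, and the crude extract, at 1 mg/mL protein, was exposed to 10 μM compound for 30 min. Aliquots were heated for 3 min across 48°C-58°C, pooled, brought to 0.5% NP-40 at 4°C and spun at 21,000xg for 90 min, with the supernatant taken as soluble protein. TMTpro 16plex LC-MS/MS with equalised channel sums quantified that protein. Values are log-two fold changes in thermal stability relative to solvent controls, taken from duplicates.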

[2] = compound: CCCS(=O)(=O)Nc1ccc(F)c(C(=O)c2c[nH]c3ncc(Cl)cc23)c1F
In short: as §1

[3] = compound: CCN(CCCOc1ccc2c(Nc3cc(CC(=O)Nc4cccc(F)c4)[nH]n3)ncnc2c1)CCOP(=O)(O)O [barasertib]
In short: as §1

[4] = compound: CC[C@@H]1C(=O)N(C)c2cnc(Nc3ccc(C(=O)NC4CCN(C)CC4)cc3OC)nc2N1C1CCCC1
In short: as §1

[5] = compound: CC[C@@H]1C(=O)N(C)c2cnc(Nc3ccc(C(=O)N[C@H]4CC[C@H](N5CCN(CC6CC6)CC5)CC4)cc3OC)nc2N1C(C)C [volasertib]
In short: as §1

[6] = compound: CCn1c(C(=O)N(C2CC2)C2CC2)cc2c3c(ncn3C)c(Nc3cc(C)n(C)n3)nc21
In short: as §1

[7] = compound: CCn1cc(-c2ccnc3[nH]c(-c4cccc(CN(C)C)c4)cc23)c(-c2ccc(NC(=O)N(C)C)cc2)n1
In short: as §1

[8] = compound: CN1CCC(CNc2ccc3ncc(-c4cccc(OC(F)(F)F)c4)n3n2)CC1
In short: as §1

[9] = compound: CN1CCN(CCOc2cc(OC3CCOCC3)c3c(Nc4c(Cl)ccc5c4OCO5)ncnc3c2)CC1 [saracatinib]
In short: as §1

[10] = compound: CN1CCN(c2nc(C3=C(c4c[nH]c5ccccc45)C(=O)NC3=O)c3ccccc3n2)CC1 [sotrastaurin]
In short: as §1

[11] = compound: CN1CC[C@H](c2c(O)cc(O)c3c(=O)cc(-c4ccccc4Cl)oc23)[C@H](O)C1 [alvocidib]
In short: as §1

[12] = compound: CN1CCc2c(c3ccccc3n2Cc2ccc(C(=O)NO)cc2)C1 [Tubastatin A]
In short: as §1

[13] = compound: CNC(=O)C1=CC=CC=C1NC2=NC(=NC=C2Cl)NC3=C(C=C(C=C3)N4CCOCC4)OC
In short: as §1

[14] = compound: CNC(=O)c1ccc(Nc2ncc(C(F)(F)F)c(NCc3nccnc3N(C)S(C)(=O)=O)n2)cc1 [defactinib]
In short: as §1

[15] = compound: CNc1nc(-c2ccc3c(N)n[nH]c3c2)cc(N2C[C@@H](C(=O)NC3CCCCC3)CC[C@H]2C)n1
In short: as §1

[16] = compound: COC(=O)N[C@@H](C)CNc1nccc(-c2cn(C(C)C)nc2-c2cc(Cl)cc(NS(C)(=O)=O)c2F)n1 [encorafenib]
In short: as §1

[17] = compound: COC(=O)[C@H](CCSC)NC(=O)C1=C(C=C(C=C1)NC[C@H](CS)N)C2=CC=CC=C2
In short: as §1

[18] = compound: COc1cc(Nc2ncc3c(n2)-c2ccc(Cl)cc2C(c2c(F)cccc2OC)=NC3)ccc1C(=O)O [alisertib]
In short: as §1

[19] = compound: COc1cc2nc(-c3cc(F)ccc3O)nc(N[C@@H]3CNC[C@H]3C(C)(C)O)c2cc1OC
In short: as §1

[20] = compound: COc1cc2ncnc(Nc3ccc(F)c(Cl)c3)c2cc1OCCCN1CCOCC1 [gefitinib]
In short: as §1

Measured: log2 fold change

CASP3 (UniProt P42574)
active: [7] 0.279
inactive: [1] 0.002 | [2] 0.015 | [3] -0.024 | [4] 0.034 | [5] 0.013 | [6] -0.011 | [8] -0.049 | [9] -0.036 | [10] -0.013 | [11] 0.045 | [12] 0.056 | [13] 0.066 | [14] 0.008 | [15] 0.064 | [16] 0.011 | [17] -0.061 | [18] -0.037 | [19] 0.001 | [20] -0.001

CASP8 isoform 9 (UniProt Q14790)
inactive: [1] -0.024 | [2] -0.002 | [3] -0.017 | [4] -0.073 | [5] -0.027 | [6] 0.038 | [7] 0.095 | [8] -0.061 | [9] 0.054 | [10] -0.018 | [11] -0.008 | [12] -0.013 | [13] 0.06 | [14] 0.044 | [15] -0.026 | [16] -0.012 | [17] 0.022 | [18] 0 | [19] -0.006 | [20] -0.007

CCNK isoform 4 (UniProt O75909)
inactive: [1] -0.013 | [2] 0.006 | [3] -0.028 | [4] 0.04 | [5] -0.009 | [6] -0.007 | [7] -0.185 | [8] 0.095 | [9] 0.049 | [10] 0.004 | [11] -0.094 | [12] -0.004 | [13] 0.01 | [14] -0.011 | [15] 0.009 | [16] 0.017 | [17] -0.035 | [18] 0.071 | [19] 0 | [20] 0.046

CASC4 (UniProt Q6P4E1)
inactive: [1] 0 | [2] 0.02 | [3] -0.02 | [4] 0.009 | [5] 0.017 | [6] 0.022 | [7] -0.05 | [8] -0.008 | [9] -0.003 | [10] -0.004 | [11] -0.03 | [12] 0.054 | [13] 0.011 | [14] -0.064 | [15] -0.044 | [16] 0.128 | [17] -0.012 | [18] 0.035 | [19] -0.004 | [20] 0.086

CCDC117 (UniProt Q8IWD4)
inactive: [1] 0.052 | [2] 0.018 | [3] -0.065 | [4] 0.175 | [5] -0.005 | [6] -0.031 | [7] -0.041 | [8] 0.056 | [9] 0.043 | [10] 0.093 | [11] 0.004 | [12] 0.047 | [13] -0.015 | [14] -0.028 | [15] 0.056 | [16] -0.015 | [17] -0.04 | [18] 0.013 | [19] -0.029 | [20] -0.028

CCNL2 (UniProt Q96S94)
inactive: [1] 0.047 | [2] -0.03 | [3] 0.067 | [4] -0.052 | [5] 0.04 | [6] 0.021 | [7] 0.033 | [8] -0.073 | [9] 0 | [10] 0.091 | [11] 0.048 | [12] -0.079 | [13] 0.071 | [14] 0.046 | [15] 0.043 | [16] 0.053 | [17] 0.062 | [18] -0.013 | [19] 0.026 | [20] -0.037

CCT3 (UniProt P49368)
inactive: [1] -0.021 | [2] 0.005 | [3] -0.037 | [4] 0.015 | [5] -0.004 | [6] -0.013 | [7] 0 | [8] -0.001 | [9] 0.001 | [10] -0.017 | [11] 0.015 | [12] 0.042 | [13] -0.026 | [14] -0.016 | [15] 0.013 | [16] -0.006 | [17] -0.014 | [18] 0.007 | [19] 0 | [20] -0.016

CARNMT1 (UniProt Q8N4J0)
inactive: [1] 0.04 | [2] 0.008 | [3] -0.012 | [4] -0.013 | [5] -0.005 | [6] -0.044 | [8] 0.063 | [9] 0.04 | [10] 0.017 | [11] -0.167 | [12] 0.045 | [13] -0.021 | [14] -0.03 | [15] -0.021 | [16] 0.051 | [17] 0.015 | [18] -0.022 | [19] 0.026 | [20] 0.009
active: [7] -0.422

CCNC (UniProt P24863)
inactive: [1] 0.22 | [2] 0.046 | [3] -0.026 | [4] -0.017 | [5] -0.079 | [6] 0.029 | [7] -0.211 | [8] 0.135 | [9] -0.001 | [10] -0.062 | [11] 0.182 | [12] -0.079 | [13] -0.018 | [14] -0.073 | [15] -0.052 | [16] 0.041 | [17] 0.039 | [18] 0.009 | [19] -0.05 | [20] 0.017

CASKIN2 (UniProt Q8WXE0)
inactive: [1] 0.041 | [2] -0.057 | [3] 0.051 | [4] 0.096 | [5] 0.045 | [6] 0.005 | [7] -0.075 | [8] 0.008 | [9] 0.05 | [10] -0.086 | [11] 0.045 | [12] 0.035 | [13] 0.034 | [14] 0.004 | [15] 0.042 | [16] -0.019 | [17] -0.018 | [18] 0.005 | [19] 0.016 | [20] -0.006

CCDC86 (UniProt Q9H6F5)
inactive: [1] -0.005 | [2] 0.01 | [3] 0.009 | [4] 0.069 | [5] -0.016 | [6] -0.03 | [7] -0.022 | [8] 0.021 | [9] 0.068 | [10] -0.014 | [11] -0.084 | [12] 0.109 | [13] 0.011 | [14] -0.004 | [15] 0.033 | [16] -0.021 | [17] -0.013 | [18] -0.007 | [19] -0.007 | [20] -0.016

CC2D1A (UniProt Q6P1N0)
inactive: [1] -0.033 | [2] 0.015 | [3] 0.05 | [4] 0.05 | [5] -0.032 | [6] -0.009 | [7] 0.242 | [8] -0.036 | [9] 0.019 | [10] 0.026 | [11] -0.052 | [12] -0.022 | [13] 0.014 | [14] -0.041 | [15] 0.022 | [16] 0.017 | [17] -0.061 | [18] 0 | [19] -0.007 | [20] -0.02

CCDC43 (UniProt Q96MW1)
inactive: [1] 0.033 | [2] 0.023 | [3] -0.105 | [4] -0.028 | [5] 0.021 | [6] 0.049 | [7] -0.024 | [8] 0.058 | [9] 0.009 | [10] 0.012 | [11] -0.05 | [12] -0.028 | [13] -0.056 | [14] -0.054 | [15] 0.035 | [16] 0.019 | [17] -0.025 | [18] -0.004 | [19] -0.024 | [20] -0.011

CCNYL1 (UniProt Q8N7R7)
inactive: [1] -0.072 | [2] 0.003 | [3] -0.046 | [4] 0.031 | [5] -0.046 | [6] 0.012 | [7] -0.188 | [8] 0.269 | [9] 0.051 | [10] 0.034 | [11] -0.074 | [12] -0.076 | [13] 0.061 | [14] 0.024 | [15] 0.055 | [16] 0.011 | [17] 0.032 | [18] -0.012 | [19] 0.032 | [20] 0.101

Copied from the results shown (2 entries):
CASKIN2 (UniProt Q8WXE0)
inactive: [1] 0.041 | [2] -0.057 | [3] 0.051 | [4] 0.096 | [5] 0.045 | [6] 0.005 | [7] -0.075 | [8] 0.008 | [9] 0.05 | [10] -0.086 | [11] 0.045 | [12] 0.035 | [13] 0.034 | [14] 0.004 | [15] 0.042 | [16] -0.019 | [17] -0.018 | [18] 0.005 | [19] 0.016 | [20] -0.006

CCDC86 (UniProt Q9H6F5)
inactive: [1] -0.005 | [2] 0.01 | [3] 0.009 | [4] 0.069 | [5] -0.016 | [6] -0.03 | [7] -0.022 | [8] 0.021 | [9] 0.068 | [10] -0.014 | [11] -0.084 | [12] 0.109 | [13] 0.011 | [14] -0.004 | [15] 0.033 | [16] -0.021 | [17] -0.013 | [18] -0.007 | [19] -0.007 | [20] -0.016

Next part

CCAR1 (UniProt Q8IX12)
inactive: [1] -0.008 | [2] -0.012 | [3] 0.015 | [4] -0.006 | [5] -0.023 | [6] -0.004 | [7] -0.16 | [8] 0.015 | [9] 0.009 | [10] -0.021 | [11] -0.049 | [12] 0.017 | [13] 0.004 | [14] 0.019 | [15] 0.025 | [16] 0.001 | [17] 0.098 | [18] 0 | [19] 0.01 | [20] -0.004

CCDC115 (UniProt Q96NT0)
inactive: [1] -0.025 | [2] 0.007 | [3] 0.012 | [4] 0.004 | [5] 0 | [6] 0.062 | [7] -0.013 | [8] -0.009 | [9] -0.005 | [10] -0.011 | [11] -0.009 | [12] 0.045 | [13] 0.034 | [14] 0.005 | [15] 0.047 | [16] 0.054 | [17] -0.177 | [18] -0.001 | [19] -0.037 | [20] -0.006
